Assay results published in PubChem BioAssay AID2685 (National Center for Advancing Translational Sciences (NCATS), 2010).
This is one part of the list. These are further read-outs of the screen, such as a control signal, another cell line or another target. No call is given for them. The list favours compounds with an active or inconclusive main result. Words in brackets tell the shape of the fitted curve; partial curves, single points and poor fits give uncertain potencies.

Experiment: qHTS Assay for Lipid Storage Modulators in Drosophila S3 Cells;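 for cell number change: cells counted by Cell Tracker Red CMTPX staining in the red channel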
Conditions: BODIPY lipid droplet fluorescence, 18-24 h; for cell number change: measured here: cell count max response, cells fed with added oleic acid
In short: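 Drosophila S3 cells loaded with oleic acid (400 uM, as added) and compounds at several concentrations; lipid droplets imaged by 488-nm laser-scanning cytometry, 500–530 nm intensity and object ratio to cell channel. Percent activity normalized to 20 uM Triacsin C.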

[1] = measured here: lipid fluorescence (Fed channel) AC50, cells fed with added oleic acid
[2] = measured here: cell number channel AC50, cells fed with added oleic acid

| SMILES | cell number change [%] | AC50 [1] | AC50 [2] |
| --- | --- | --- | --- |
| CCCn1c(SCCc2ccccc2)nc2c1c(=O)[nH]c(=O)n2C | -13 | 1.3 µM [rising, full curve, poor fit] | – |
| COc1cc2c(cc1OC)CN(C(=O)c1cccc(S(=O)(=O)N3CCc4ccccc43)c1)CC2 | -21.2 | – | – |
| COc1cc(/C=N/NC(N)=O)cc([N+](=O)[O-])c1O | -13.8 | 0.92 µM [falling, partial curve] | – |
| C=CCn1c(SCc2nc3ccccc3c(=O)[nH]2)nnc1-c1cc2cc(Cl)ccc2o1 | 31.7 | 1.16 µM [rising, single point] | 1.84 µM [rising, partial curve, poor fit] |
| Cc1nc(NC(=O)c2ccco2)sc1-c1csc(Nc2ccc(Cl)cc2Cl)n1 | -62.8 | 18.4 µM [falling, single point] | 10.3 µM [falling, partial curve] |
| CCc1ccc(C(=O)NC(=S)Nc2ccc(N3CCOCC3)cc2)cc1 | -13.1 | 29.1 µM [falling, single point] | – |
| CC(C)(C)N(NC(=O)OCc1ccccc1)C(=O)c1ccccc1Cl | -10.2 | 20.6 µM [falling, single point] | – |
| CC(=O)c1c(C)[nH]c(C(=O)OCC(=O)N2CCCC2=O)c1C | 1.37 | 0.58 µM [rising, partial curve, poor fit] | – |
| O=C1NC[C@H](c2ccccc2)N(CCc2cccc3ccccc23)C1=O | 7.69 | 10.3 µM [rising, partial curve, poor fit] | – |
| O=C(Nc1ccc(F)cc1)N1CCN(c2nc3ccccc3s2)CC1 | – | 1.03 µM [falling, partial curve] | – |
| Cc1cc(C)n(C(C[N+](=O)[O-])c2ccc(Cl)cc2)n1 (centres undefined) | -9.68 | 0.82 µM [falling, single point] | – |
| CC1=NN(c2cccc(C(=O)O)c2)C(=O)/C1=C\C=C/c1ccccc1 | -27.1 | 5.8 µM [falling, full curve] | – |
| CCCCCOC(=O)C1=C(C)NC(=O)NC1c1ccccc1OCC (centres undefined) | -2.57 | 3.26 µM [rising, single point] | – |
| CC(=O)C(N=Nc1ccccc1)(Sc1nnc(-c2ccccc2)n1-c1ccccc1)C(=O)Nc1ccccc1 (centres undefined) | 26.1 | 2.31 µM [rising, single point] | – |
| CCC(C(=O)Nc1ncccn1)(C(F)(F)F)C(F)(F)F | -97.6 | – | 29.1 µM [falling, single point] |
| Cc1cc(NC(=O)CN(C)S(=O)(=O)c2ccc(-c3ccc(=O)[nH]n3)s2)ccc1Br | – | 6.51 µM [rising, single point] | – |
| O=C(Cc1ccc2c(c1)CCCC2)Nc1ccccc1Br | -13.4 | 3.66 µM [falling, single point] | 0.461 µM [falling, single point] |
| CCn1cc(CCC(=O)NC2CCCC2)c2ccccc21 | 95.8 | 29.1 µM [rising, single point] | 29.1 µM [rising, partial curve, poor fit] |

| SMILES | cell number change [%] | AC50 [1] | AC50 [2] |
| --- | --- | --- | --- |
| CCCC(=O)NC(C)c1nc2ccccc2[nH]1 (centres undefined) | – | 5.17 µM [falling, full curve] | – |
| O=C(Nc1ccccn1)NC12CC3CC(CC(C3)C1)C2 | -38.9 | 6.51 µM [falling, partial curve, poor fit] | 23.1 µM [falling, single point] |
| CC(=O)c1ccc(OC(=O)/C=C/c2ccccc2)cc1 | -5.59 | 0.731 µM [rising, single point] | – |
| Cc1cc([N+](=O)[O-])ccc1NC(=O)C(C)[n+]1ccccc1 (centres undefined) | -10.1 | 0.58 µM [falling, single point] | – |
| Cc1cc(C(=O)COC(=O)c2n[nH]c(=O)c3ccccc23)c(C)n1C | 7.03 | – | – |
| N/C(=N\OC(=O)c1cc(Cl)ccc1Cl)c1ccccn1 | 6.03 | 18.4 µM [rising, single point] | – |
| Cc1ccc(Nc2cc(=O)[nH]c(=O)[nH]2)cc1Cl | -28.8 | – | 0.116 µM [falling, full curve, poor fit] |
| O=C(COC(=O)/C=C/c1ccc(Cl)cc1)NC(=O)NCc1ccccc1 | -50.7 | 2.91 µM [falling, partial curve, poor fit] | 20.6 µM [falling, partial curve] |
| CC(C)(C)c1cccc(/C=N/O)c1O | -24.4 | 29.1 µM [falling, single point] | – |
| CCCCN(C(=O)C1CC(=O)N(c2ccc3c(c2)OCCO3)C1)c1c(N)n(CCCC)c(=O)[nH]c1=O (centres undefined) | -25 | – | 0.651 µM [falling, full curve] |
| CCN(C(=O)CSc1nnc(-c2ccncc2)o1)c1ccccc1 | 13.6 | – | – |
| Cc1ccc(C(=O)OCC(=O)Nc2c(C)n(C)n(-c3ccccc3)c2=O)cc1[N+](=O)[O-] | 7.57 | 6.51 µM [falling, single point] | 7.31 µM [falling, single point] |
| CCc1ccccc1NC(=O)CC(O)(C(=O)OC)C(F)(F)F (centres undefined) | -7.57 | 10.3 µM [falling, partial curve] | – |
| CC(C)C(C)NC(=O)COc1ccc(OCc2ccccc2)cc1 (centres undefined) | 16.8 | 0.82 µM [falling, full curve] | – |
| COC(=O)CSc1nc2cc3c(cc2cc1C)OCO3 | 10.6 | 2.59 µM [falling, partial curve] | – |
| CCOC1(c2ccccc2)CC1C(=O)N/N=C/c1cccc([N+](=O)[O-])c1 (centres undefined) | – | 0.461 µM [rising, full curve] | 0.206 µM [rising, full curve, poor fit] |
| CS(=O)(=O)N(CC(=O)NCCC1=CCCCC1)c1ccc2c(c1)OCO2 | -1.62 | 6.51 µM [falling, single point] | – |
| O=C(CCCN1C(=O)c2ccccc2C1=O)NCC1CCCO1 (centres undefined) | -15.8 | 0.0326 µM [falling, full curve, poor fit] | 0.058 µM [falling, full curve, poor fit] |

Just AC50 [1] and cell number change [%] (2 entries from above):
SMILES	AC50 [1]	cell number change [%]
Cc1cc([N+](=O)[O-])ccc1NC(=O)C(C)[n+]1ccccc1 (centres undefined)	0.58 µM [falling, single point]	-10.1
CC(C)(C)c1cccc(/C=N/O)c1O	29.1 µM [falling, single point]	-24.4
